These are yes or no findings as the source states them, for the method shown. Binding seen in cells or lysates may run through a third protein. These calls come from enrichment with a bait or labelling near it, and not all partners need be listed.
Target: ADAMTS12 with HA label (overexpressed from recombinant plasmid pCMV-HA-C-ADAMTS12) (human) (UniProt P58397)
Experiment: affinity purification with mass spectrometry; co-immunoprecipitation combined with mass spectrometry from HeLa cells transfected with the ADAMTS12 recombinant plasmid, compared with a second group of cells (Venn diagram); precipitating antibody not stated

Sequences of proteins named here, by UniProt entry; tags and fusion partners are left off. A change or cut given only in a name is not applied to a line headed by its entry. Residues count along the entry.
UniProt P58397: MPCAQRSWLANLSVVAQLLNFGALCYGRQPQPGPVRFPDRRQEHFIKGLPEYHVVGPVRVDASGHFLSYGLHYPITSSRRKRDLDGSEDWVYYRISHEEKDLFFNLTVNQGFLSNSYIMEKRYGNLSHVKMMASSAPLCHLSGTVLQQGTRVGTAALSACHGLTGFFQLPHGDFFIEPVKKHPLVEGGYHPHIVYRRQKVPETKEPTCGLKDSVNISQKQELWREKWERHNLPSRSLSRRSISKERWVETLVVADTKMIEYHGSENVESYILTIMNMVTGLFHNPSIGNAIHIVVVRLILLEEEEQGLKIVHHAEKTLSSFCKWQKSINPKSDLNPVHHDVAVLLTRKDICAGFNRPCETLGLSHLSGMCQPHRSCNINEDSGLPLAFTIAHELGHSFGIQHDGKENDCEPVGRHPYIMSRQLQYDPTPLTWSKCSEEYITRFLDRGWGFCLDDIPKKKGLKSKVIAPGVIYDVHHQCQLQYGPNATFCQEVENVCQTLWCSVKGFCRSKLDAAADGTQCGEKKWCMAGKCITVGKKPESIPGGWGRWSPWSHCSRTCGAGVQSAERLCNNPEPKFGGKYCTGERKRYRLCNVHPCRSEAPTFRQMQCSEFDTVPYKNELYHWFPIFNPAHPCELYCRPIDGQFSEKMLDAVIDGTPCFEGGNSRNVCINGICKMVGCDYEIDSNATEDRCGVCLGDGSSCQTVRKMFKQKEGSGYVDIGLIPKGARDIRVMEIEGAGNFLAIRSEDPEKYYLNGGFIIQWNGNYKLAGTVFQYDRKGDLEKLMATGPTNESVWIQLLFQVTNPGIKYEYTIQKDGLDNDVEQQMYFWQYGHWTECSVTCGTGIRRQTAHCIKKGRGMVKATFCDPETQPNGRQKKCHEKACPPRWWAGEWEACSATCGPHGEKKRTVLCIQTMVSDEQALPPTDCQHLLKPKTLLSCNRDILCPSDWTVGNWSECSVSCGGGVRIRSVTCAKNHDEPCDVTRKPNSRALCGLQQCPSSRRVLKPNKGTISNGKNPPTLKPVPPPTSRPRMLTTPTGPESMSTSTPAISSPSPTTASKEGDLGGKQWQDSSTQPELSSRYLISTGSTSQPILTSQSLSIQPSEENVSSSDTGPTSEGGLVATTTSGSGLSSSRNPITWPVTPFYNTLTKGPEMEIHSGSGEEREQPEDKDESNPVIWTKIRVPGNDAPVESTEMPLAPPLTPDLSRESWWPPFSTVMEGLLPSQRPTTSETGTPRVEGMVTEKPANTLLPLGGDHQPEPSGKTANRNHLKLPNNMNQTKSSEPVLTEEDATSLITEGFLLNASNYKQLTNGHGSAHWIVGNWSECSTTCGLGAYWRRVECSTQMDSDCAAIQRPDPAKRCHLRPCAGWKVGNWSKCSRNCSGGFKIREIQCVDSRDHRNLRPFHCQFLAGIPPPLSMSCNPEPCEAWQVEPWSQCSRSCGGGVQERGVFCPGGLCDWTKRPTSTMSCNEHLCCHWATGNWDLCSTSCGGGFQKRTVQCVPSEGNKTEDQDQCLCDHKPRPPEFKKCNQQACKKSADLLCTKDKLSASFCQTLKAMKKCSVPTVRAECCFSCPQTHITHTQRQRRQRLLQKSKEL
UniProt P20908, residues 38-1605: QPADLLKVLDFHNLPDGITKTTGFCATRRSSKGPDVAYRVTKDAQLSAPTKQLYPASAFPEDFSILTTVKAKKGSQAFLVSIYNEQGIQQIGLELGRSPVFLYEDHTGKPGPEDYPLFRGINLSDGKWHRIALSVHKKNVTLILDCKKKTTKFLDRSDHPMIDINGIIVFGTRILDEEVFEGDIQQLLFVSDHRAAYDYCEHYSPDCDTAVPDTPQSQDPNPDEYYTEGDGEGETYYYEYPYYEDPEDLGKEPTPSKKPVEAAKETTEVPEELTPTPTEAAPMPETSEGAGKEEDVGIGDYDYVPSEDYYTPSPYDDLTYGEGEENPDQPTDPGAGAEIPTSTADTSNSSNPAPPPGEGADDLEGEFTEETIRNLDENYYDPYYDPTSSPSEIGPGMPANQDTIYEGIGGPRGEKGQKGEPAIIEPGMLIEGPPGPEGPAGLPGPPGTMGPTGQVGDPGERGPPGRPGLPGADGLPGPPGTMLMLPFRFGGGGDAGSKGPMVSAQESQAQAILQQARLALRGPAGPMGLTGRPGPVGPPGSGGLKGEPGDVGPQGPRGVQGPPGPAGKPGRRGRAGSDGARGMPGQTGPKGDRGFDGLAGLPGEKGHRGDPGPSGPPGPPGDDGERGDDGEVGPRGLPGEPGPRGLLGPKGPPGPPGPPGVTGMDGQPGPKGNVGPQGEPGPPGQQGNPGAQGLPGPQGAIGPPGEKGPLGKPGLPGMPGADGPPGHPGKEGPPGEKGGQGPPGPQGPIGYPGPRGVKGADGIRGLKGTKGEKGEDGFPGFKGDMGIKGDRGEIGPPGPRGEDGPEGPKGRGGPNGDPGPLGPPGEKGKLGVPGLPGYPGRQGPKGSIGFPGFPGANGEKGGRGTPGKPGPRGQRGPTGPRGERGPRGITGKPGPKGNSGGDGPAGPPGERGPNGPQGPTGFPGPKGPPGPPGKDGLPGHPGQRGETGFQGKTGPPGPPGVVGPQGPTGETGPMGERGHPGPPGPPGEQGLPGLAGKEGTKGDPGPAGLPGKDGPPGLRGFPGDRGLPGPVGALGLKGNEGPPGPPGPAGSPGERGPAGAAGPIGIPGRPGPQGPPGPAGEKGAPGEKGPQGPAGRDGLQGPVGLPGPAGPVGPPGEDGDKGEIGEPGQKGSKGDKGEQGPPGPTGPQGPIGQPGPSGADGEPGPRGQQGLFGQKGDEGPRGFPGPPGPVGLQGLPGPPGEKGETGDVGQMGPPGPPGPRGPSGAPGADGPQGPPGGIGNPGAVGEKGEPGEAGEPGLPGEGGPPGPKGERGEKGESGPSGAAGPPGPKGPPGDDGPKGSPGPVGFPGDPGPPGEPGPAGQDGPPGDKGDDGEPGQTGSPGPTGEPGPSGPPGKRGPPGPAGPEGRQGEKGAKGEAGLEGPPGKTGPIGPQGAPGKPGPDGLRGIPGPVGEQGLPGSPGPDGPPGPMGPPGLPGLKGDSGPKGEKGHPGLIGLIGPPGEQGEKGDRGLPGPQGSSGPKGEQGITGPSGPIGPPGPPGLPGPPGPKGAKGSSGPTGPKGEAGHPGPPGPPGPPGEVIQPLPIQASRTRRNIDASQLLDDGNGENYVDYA
UniProt P04004, residues 20-478: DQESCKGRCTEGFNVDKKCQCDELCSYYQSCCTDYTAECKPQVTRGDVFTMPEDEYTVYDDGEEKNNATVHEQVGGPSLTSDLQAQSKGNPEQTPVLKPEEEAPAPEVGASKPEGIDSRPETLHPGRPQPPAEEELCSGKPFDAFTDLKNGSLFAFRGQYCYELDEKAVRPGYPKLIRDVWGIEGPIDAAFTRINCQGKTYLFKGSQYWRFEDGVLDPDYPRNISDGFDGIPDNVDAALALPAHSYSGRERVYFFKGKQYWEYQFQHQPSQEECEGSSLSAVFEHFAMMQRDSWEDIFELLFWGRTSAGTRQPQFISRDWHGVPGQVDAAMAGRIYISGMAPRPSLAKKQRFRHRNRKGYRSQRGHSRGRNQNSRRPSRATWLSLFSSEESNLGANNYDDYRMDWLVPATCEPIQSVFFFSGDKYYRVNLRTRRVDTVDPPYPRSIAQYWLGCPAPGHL

Row | binding | Substance
1 | binds | COL5A1 (from UniProt P20908 38-1605)
2 | binds | VTN (from UniProt P04004 20-478)

Source: publication PMC10465472
